PubChem BioAssay AID2718 (Broad Institute, 2010)
The campaign covered roughly 320,000 compounds. About 480 (0.15%) were called active. The inconclusive results got no clear call from the source; some entries with a clear call stand among them for comparison. Cut-off read from the data, not from the text of the source: active = inhibition above about 26% (passing the limit was not always enough); inconclusive = no clear call, values can overlap the other calls.

Amino acid sequences for entries named in this document (tags omitted). A change or cut given only in a name is not applied to a line headed by its entry.
UniProt O15379: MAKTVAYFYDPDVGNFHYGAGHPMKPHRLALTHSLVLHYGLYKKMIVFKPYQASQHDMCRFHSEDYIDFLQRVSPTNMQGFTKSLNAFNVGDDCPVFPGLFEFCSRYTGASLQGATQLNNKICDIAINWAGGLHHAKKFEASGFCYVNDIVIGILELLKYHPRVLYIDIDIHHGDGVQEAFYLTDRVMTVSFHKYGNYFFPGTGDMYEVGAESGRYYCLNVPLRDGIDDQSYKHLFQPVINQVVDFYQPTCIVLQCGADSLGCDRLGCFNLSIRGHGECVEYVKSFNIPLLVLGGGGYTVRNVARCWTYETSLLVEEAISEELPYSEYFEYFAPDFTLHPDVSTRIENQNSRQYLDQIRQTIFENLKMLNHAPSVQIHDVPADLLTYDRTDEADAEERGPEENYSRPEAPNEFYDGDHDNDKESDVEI

target: Histone deacetylase 3 (Homo sapiens) (UniProt O15379); test: HDAC3 deacetylase inhibitors, primary screen, biochemical, fluorescence, cell-free homogeneous (AID 2718); details: recombinant HDAC3, fluorogenic peptide/trypsin coupled, at 8.3 µM, active compounds read high

SMILES	inhibition
Cc1ccc(NC2CCCN(C(=O)c3cnc4ccccn4c3=O)C2)cc1C (stereo not given)	inactive: -1.23%
CN(C(=O)COC(=O)c1ccccc1Cc1ccccc1)C1CCS(=O)(=O)C1 (stereo not given)	inconclusive: 18.2%
CCC(C)Sc1ccc(-c2nc3cnccn3c2NC2CCCCC2)cc1 (stereo not given)	inactive: 3.25%
Cc1ccc(NC(=O)CN(C)C(=O)c2ccc(NS(=O)(=O)c3ccc4[nH]c(=O)[nH]c4c3)cc2)cc1	inactive: 3.02%
CCOc1ccc(/C=N/NC(=O)Cc2csc(Nc3cccc(C(F)(F)F)c3)n2)c(OCC)c1	active: 35.9%
COc1ccccc1C1C(C(C)=O)=C(O)C(=O)N1c1ccc(O)cc1 (stereo not given)	inconclusive: 20.2%
O=C(c1ccccc1F)N1CCN(S(=O)(=O)c2ccc3c(c2)OCCO3)CC1	active: 31.9%
O=C(O)CCC(=O)NC1CCCCC1	inconclusive: 14.5%
Cc1onc(-c2c(Cl)cccc2Cl)c1C(=O)ONC(=O)c1cc(C(F)(F)F)cc(C(F)(F)F)c1	inactive: 8.2%
NC1=NC(=O)/C(=C/C=C/c2cccs2)S1	inactive: 2.35%
CC(C)N(Cc1ccccc1)C(=O)C1CCCN(c2ncnc3c2nc2n3CCCCC2)C1 (stereo not given)	inconclusive: 23.1%
Cc1ccc(NC(=O)CN(C)C(=O)/C=C/c2cccs2)cc1	inactive: 6.16%
CCN(Cc1ccccc1)S(=O)(=O)c1cc(C(=O)NC(C)C2CC3CCC2C3)ccc1OC (stereo not given)	inconclusive: 25.3%
CC(C(=O)OCC(=O)c1cccc([N+](=O)[O-])c1)N1C(=O)C2C3CCC(C3)C2C1=O (stereo not given)	inactive: 3.68%
O=C(NCCc1ccccc1)/C(=N\O)c1ccccc1	inconclusive: 18%
CN(Cc1ccccc1)Cc1c(O)ccc2ccccc12	inconclusive: 21.5%
CCOC(=O)/C(C#N)=C/Nc1ccccc1NS(=O)(=O)c1cccc(C(C)=O)c1	inconclusive: 15.2%
Cc1cccc(-n2nc3c(c2NC(=O)C(C)C)CS(=O)(=O)C3)c1C	inconclusive: 24.1%
O=C(Nc1ccccc1O)c1ccc(C(=O)c2ccccc2)o1	active: 48.1%
Cc1nc2ccc(Br)cc2c2c1CC(CO)O2 (stereo not given)	inactive: 11.6%
CCOc1cc(/C=C2\SC(=Nc3ccc(CC)cc3)NC2=O)ccc1OCC(=O)O	inconclusive: 13.7%
O=C(CN1CCCC1)Nc1ccc(Br)cc1	inconclusive: 16.7%
COc1cc(OC)c(OC)cc1/C=C1\CC(C)C/C(=C\c2cc(OC)c(OC)cc2OC)C1=O (stereo not given)	inconclusive: 23%
COc1ccccc1NC(=O)C1CCCN1S(=O)(=O)c1cccc2nsnc12 (stereo not given)	inconclusive: 22.9%
O=C(CNCC1CCCO1)Nc1ccccc1-n1cccc1 (stereo not given)	inconclusive: 18%
COc1ccc(C(=O)n2nc(C)c(Br)c2C)cc1OC	active: 38.4%
O=C(CSc1nnc(NC(=O)C2CCC2)s1)Nc1ccccc1Br	inconclusive: 13.3%
O=C(c1ccc([N+](=O)[O-])cc1)N(Cc1ccc(Br)cc1)N1C(=O)CCCC1=O	inactive: -3.17%

SMILES	inhibition
Cc1c[nH]c2cccc(OCC(O)CNC(C)(C)C)c12 (stereo not given)	inconclusive: 22.5%
O=[N+]([O-])c1c(NCc2ccccc2)cc(N2CCc3ccccc3C2)c2nonc12	inconclusive: 9.86%
Oc1nc(Nc2cccc(Cl)c2)sc1/C=C1\C=Nc2ccccc21	inactive: 6.02%
COc1cc(/C=C2/NC(=O)N(Cc3ccccc3F)C2=O)ccc1O	inactive: 12.7%
COc1cccc(CN(C(=O)c2ccccc2Br)C2CCS(=O)(=O)C2)c1 (stereo not given)	inactive: 1.28%
O=C(CCCCCNC(=O)c1ccccc1)N/N=C/c1ccc(F)cc1	inconclusive: 11.2%
COc1ccc(-c2cc(C(=O)Nc3ccc(S(=O)(=O)Nc4onc(C)c4C)cc3)c3ccccc3n2)cc1	inconclusive: 21.9%
Cc1cc(C)cc(-n2nnc(C(=O)NCc3ccc(Cl)cc3)c2N)c1	inconclusive: 14.4%
CCCOc1cccc(C(=O)Nc2nnn(CCC)n2)c1	inconclusive: 16.9%
Cn1cc(/C=N/Nc2ccccc2)c2ccccc21	inactive: -9.04%
O=C(COC(=O)C1CCN(c2ccc(C(F)(F)F)cn2)CC1)Nc1cc(F)ccc1F	inconclusive: 12.7%
CC(C)(C)OC(=O)N[C@@H](Cc1c[nH]c2ccccc12)c1nnc(SCC(N)=O)o1	inconclusive: 23.7%
Cc1ccc(N2CN=c3s/c(=C\c4cccnc4)c(=O)n3C2)cc1	inconclusive: 13.9%
Cn1cccc1/C=C1\SC(=S)N(NC(=O)c2ccccc2)C1=O	inactive: -6.58%
CCN1CCN(C(=O)c2cc(COc3ccc(F)cc3F)on2)[C@@H](C)C1=O	inactive: -3.28%
C=CC[C@@H](CC(=O)N[C@@H](CO)Cc1ccccc1)C(=O)N[C@@H](COC(=O)[C@H](CC=C)CC(=O)OC(C)(C)C)Cc1c[nH]c2ccccc12	active: 39.4%
Cc1ccc(S(=O)(=O)N2CCC(=O)N(C(COCc3cccc(Cl)c3)C(C)C)CC2)cc1 (stereo not given)	inconclusive: 16.1%
CCOC(=O)N1CCC(NC(=O)CN(c2ccc(C(C)C)cc2)S(=O)(=O)c2c(C)nn(C)c2C)CC1	inconclusive: 21.2%
Cc1cccc(NC(=O)CN2C(=O)S/C(=C\C(=O)Nc3ccc(Cl)cc3)C2=O)c1	inconclusive: 16.5%
O=C(Nc1ccc2nc3n(c(=O)c2c1)CCCCC3)C(=O)N1CCN(c2ccccc2)CC1	inconclusive: 31%
CCn1c2ccccc2c2cc(NC(=O)C(C)C)ccc21	inconclusive: 19.2%
Cc1ccc(N2CSC3=C(C#N)C(c4cccs4)CC(=O)N3C2)cc1 (stereo not given)	inactive: 9.75%
Cc1nc(NC(=O)c2ccc(Cl)cc2)sc1Cc1ccc2c(c1)OCO2	inactive: -16.8%
NC(=O)CN1CCN(CCN2C(=O)c3cccc4cccc(c34)C2=O)CC1	inconclusive: 16.3%
O=C(Cc1csc(NC(=O)c2ccccc2)n1)NO	inconclusive: 19.7%
C/C(=N\NC(=O)CN1CCCCC1)c1ccccc1O	inactive: 1.97%
COc1ccc(S(=O)(=O)Nc2ccc3c(c2)C(=O)N([C@H](C)CO)C[C@H](C)[C@@H](CN(C)C(=O)Nc2ccc(C(F)(F)F)cc2)O3)cc1	inconclusive: 21.5%

Look-ups from above:
Value of O=C(CCCCCNC(=O)c1ccccc1)N/N=C/c1ccc(F)cc1 under inhibition: inconclusive: 11.2%
Value of CC(C)(C)OC(=O)N[C@@H](Cc1c[nH]c2ccccc12)c1nnc(SCC(N)=O)o1 under inhibition: inconclusive: 23.7%
